# At least one structure is not confirmed: it was looked up by name or label, or the drawing left a doubt.
# Chains of the proteins cited; added tags and fusions are not shown. Lines headed by an entry give the natural chain unless they say otherwise; changes in a name come on top.
# UniProt P50613: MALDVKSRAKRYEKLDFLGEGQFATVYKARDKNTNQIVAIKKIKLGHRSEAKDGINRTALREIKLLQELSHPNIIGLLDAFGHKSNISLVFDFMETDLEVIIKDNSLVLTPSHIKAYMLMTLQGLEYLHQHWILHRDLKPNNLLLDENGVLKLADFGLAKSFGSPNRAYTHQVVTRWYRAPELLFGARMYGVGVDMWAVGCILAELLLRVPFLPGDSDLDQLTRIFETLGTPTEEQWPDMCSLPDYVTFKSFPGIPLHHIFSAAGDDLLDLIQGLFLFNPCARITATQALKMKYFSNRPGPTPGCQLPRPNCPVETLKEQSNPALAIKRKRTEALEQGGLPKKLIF
# UniProt Q9NYV4, whole entry, looked up: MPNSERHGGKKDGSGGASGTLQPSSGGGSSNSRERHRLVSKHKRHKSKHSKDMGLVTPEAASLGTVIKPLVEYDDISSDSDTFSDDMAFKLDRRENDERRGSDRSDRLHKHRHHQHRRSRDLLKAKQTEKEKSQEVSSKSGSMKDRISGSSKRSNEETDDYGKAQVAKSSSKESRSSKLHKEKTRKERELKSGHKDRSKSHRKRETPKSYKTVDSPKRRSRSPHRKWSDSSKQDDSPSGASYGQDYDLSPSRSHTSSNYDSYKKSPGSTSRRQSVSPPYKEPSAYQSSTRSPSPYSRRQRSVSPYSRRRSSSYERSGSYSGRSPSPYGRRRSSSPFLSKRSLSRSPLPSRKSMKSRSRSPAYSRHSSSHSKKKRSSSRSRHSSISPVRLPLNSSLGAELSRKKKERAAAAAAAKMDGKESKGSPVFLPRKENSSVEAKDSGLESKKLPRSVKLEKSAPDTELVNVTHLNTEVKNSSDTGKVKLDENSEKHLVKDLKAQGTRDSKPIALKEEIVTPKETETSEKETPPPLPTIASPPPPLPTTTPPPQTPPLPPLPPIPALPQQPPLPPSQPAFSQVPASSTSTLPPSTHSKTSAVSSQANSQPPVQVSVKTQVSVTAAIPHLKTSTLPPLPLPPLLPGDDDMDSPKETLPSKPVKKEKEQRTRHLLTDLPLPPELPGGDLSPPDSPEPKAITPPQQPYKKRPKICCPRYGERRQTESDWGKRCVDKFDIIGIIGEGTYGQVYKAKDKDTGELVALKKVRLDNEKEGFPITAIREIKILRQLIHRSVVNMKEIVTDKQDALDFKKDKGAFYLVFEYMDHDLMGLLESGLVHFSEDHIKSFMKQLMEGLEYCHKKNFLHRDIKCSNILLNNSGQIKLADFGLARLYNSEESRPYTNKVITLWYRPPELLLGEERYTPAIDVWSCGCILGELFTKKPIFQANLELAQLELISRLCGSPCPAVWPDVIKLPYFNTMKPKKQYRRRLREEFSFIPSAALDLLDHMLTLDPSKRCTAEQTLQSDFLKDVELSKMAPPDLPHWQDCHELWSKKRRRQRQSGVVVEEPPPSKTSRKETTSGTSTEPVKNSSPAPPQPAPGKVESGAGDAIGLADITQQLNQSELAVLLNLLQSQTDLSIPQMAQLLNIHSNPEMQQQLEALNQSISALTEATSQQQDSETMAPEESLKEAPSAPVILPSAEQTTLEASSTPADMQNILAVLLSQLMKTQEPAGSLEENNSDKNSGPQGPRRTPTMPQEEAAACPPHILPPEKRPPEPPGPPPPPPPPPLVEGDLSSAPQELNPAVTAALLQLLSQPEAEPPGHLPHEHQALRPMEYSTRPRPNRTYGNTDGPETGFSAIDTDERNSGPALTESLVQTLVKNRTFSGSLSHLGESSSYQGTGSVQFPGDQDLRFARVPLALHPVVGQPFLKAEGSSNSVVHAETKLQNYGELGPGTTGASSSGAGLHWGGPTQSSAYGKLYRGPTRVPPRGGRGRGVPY
# Legend:
# [1] = target: CDK7 (Homo sapiens (Human), UniProt P50613); experiment: CDK7 target occupancy in Jurkat cells; type: cell-based
# [2] = target: CDK12 (Homo sapiens (Human), UniProt Q9NYV4); experiment: CDK12 plate based target engagement assay in Jurkat cells; type: cell-based
# Procedure: Jurkat cells were treated with varying concentrations of the compound for 6 hours. The DMSO concentration was maintained at 0.1%. Cells were harvested and lysed. 200 μg of the lysate was incubated with 1 μM Bio-THZ531 in the presence of 1 mM DTT and incubated on a rocker at 4° C. overnight. 100 μL of this sample was added to pre-washed streptavidin coated plates and incubated at room temperature on a rocker for 2 hours. The plates were washed and incubated with CDK12 antibody for overnight at 4° C. Next day the plate was washed and incubated for 2 hours with HRP labelled anti rabbit secondary antibody. Bio-THZ531 bound CDK12 was determined using TMB substrate. […] Percentage CDK12 occupancy with the test compound was calculated over untreated control. Occupancy 50 was calculated by fitting the dose response data to sigmoidal curve fitting equation using GraphPad Prism software V5.
smiles,measurement,setting,value
"CC(C(=O)Nc1cc(C2CC2)[nH]n1)c1cccc(C2=CCN(C(=O)/C=C/CN(C)C)CC2)c1 (stereo not shown) [Compound A, reference compound]","Jurkat Cells, CDK7 Target Occ50",[1],129.9 nM
same,"Jurkat Cells, CDK12 Target Occ50",[2]; Jurkat cells,305.4 nM
same,binding affinity towards CDK12 in comparison to CDK7,[2]; Jurkat cells target occupancy,0.4 fold
same,Ratio CDK7/CDK12,[2]; ratio of Target Occ50 in Jurkat cells,0.425

# Reference: patent publication US10894786B2, “Substituted pyrazole derivatives as selective CDK12/13 inhibitors” (Aurigene Discovery Technologies Limited, priority 2018, dated 2021)
